In patent US6673332:
Results are given in words; binding and its absence hold for the method and conditions named. For some of these results: Binding seen in cells or lysates may run through a third protein. Some results given as binding are weak or reduced against the parent protein; the word gives no strength.

Amino acid sequences for entries named in this document (tags omitted). A change or cut given only in a name is not applied to a line headed by its entry. Chains listed by the source or under a name are the forms on record and can include a tag or linker. Residues count along the entry.
UniProt O88447: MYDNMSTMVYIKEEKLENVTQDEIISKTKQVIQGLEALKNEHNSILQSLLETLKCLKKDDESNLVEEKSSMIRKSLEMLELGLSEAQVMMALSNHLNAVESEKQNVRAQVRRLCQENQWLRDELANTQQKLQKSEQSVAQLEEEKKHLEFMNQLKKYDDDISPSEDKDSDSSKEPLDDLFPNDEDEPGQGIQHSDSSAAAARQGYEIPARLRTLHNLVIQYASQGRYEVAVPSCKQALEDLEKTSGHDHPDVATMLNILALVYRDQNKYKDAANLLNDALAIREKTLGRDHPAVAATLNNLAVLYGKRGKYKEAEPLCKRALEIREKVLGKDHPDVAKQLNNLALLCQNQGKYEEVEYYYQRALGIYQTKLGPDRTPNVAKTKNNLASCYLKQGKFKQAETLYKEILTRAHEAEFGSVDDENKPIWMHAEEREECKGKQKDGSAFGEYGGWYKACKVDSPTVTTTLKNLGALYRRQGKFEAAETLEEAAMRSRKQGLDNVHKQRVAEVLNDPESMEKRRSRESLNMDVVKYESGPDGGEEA
GST-KLC1 (glutathione S-transferase fused to kinesin light chain 1, all but the first seven amino acids): residues 8-541 of O88447
GST-CC (GST fusion protein of the N-terminal coiled coil domain of KLC, amino acids 30-200): residues 30-200 of O88447
GST-TPR (GST fusion protein of the TPR domains of KLC1, amino acids 167-541): residues 167-541 of O88447
UniProt O88448: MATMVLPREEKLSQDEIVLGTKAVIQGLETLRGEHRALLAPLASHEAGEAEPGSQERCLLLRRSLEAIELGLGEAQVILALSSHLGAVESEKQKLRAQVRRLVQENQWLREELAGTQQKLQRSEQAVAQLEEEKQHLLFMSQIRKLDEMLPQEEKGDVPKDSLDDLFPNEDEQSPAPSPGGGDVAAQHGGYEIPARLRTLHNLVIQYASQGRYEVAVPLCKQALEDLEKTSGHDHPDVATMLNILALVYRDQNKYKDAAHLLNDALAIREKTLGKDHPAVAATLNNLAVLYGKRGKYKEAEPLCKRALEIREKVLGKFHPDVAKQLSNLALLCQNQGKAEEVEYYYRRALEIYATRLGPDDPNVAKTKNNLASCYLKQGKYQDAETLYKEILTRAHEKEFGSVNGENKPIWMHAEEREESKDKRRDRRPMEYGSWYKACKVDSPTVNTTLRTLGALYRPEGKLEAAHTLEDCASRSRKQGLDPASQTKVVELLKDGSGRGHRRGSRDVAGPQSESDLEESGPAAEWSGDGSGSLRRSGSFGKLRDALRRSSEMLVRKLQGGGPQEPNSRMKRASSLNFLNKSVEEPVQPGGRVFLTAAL
GST-KLC2 (glutathione S-transferase fused to kinesin light chain 2, 591 amino acids of the largest cDNA clone): residues 9-599 of O88448
UniProt P12023, residues 18-770: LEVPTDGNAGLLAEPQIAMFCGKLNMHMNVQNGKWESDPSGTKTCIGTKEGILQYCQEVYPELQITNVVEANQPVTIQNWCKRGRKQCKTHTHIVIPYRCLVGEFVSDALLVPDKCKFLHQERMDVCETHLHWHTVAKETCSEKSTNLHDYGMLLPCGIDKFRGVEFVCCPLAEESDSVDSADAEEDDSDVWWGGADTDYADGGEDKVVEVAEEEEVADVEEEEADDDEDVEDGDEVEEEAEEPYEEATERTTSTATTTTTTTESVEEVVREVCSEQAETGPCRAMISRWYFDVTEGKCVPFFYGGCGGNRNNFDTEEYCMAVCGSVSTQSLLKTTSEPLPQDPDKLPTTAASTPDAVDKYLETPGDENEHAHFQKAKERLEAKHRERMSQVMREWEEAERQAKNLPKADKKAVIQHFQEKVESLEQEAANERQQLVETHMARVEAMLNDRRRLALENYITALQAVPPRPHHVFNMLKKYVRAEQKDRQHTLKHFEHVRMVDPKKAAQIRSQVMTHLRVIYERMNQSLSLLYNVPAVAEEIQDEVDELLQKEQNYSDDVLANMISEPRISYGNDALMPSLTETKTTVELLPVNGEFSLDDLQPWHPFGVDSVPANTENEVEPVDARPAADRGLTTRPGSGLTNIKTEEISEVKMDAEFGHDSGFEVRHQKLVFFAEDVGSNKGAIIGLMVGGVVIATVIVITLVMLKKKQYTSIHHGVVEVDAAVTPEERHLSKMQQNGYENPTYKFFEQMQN
UniProt Q61768, residues 499-783: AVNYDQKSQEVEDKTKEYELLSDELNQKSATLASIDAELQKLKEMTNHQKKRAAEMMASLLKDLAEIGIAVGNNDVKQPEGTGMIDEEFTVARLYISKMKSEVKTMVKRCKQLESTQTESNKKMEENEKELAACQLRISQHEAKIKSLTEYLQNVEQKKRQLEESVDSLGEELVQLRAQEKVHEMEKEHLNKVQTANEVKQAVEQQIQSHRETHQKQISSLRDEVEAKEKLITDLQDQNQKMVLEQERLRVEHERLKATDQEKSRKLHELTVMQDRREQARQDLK

How the values were obtained:
[1] = target: GST-TPR (GST fusion protein of the TPR domains of KLC1, amino acids 167-541) (UniProt O88447); experiment: GST pull-down, Western blot for GFP
[2] = target: GST-KLC1 (glutathione S-transferase fused to kinesin light chain 1, all but the first seven amino acids) (UniProt O88447); experiment: GST pull-down, Western blot (FIG. 5, Panel A)
[3] = target: GST-KLC2 (glutathione S-transferase fused to kinesin light chain 2, 591 amino acids of the largest cDNA clone) (UniProt O88448); experiment: GST pull-down, Western blot (FIG. 5, Panel A)
[4] = target: GST-TPR (GST fusion protein of the TPR domains of KLC1, amino acids 167-541) (UniProt O88447); experiment: GST pull-down, Western blot (FIG. 5, Panel E)
[5] = target: GST-KLC2 (glutathione S-transferase fused to kinesin light chain 2, 591 amino acids of the largest cDNA clone) (UniProt O88448); experiment: GST pull-down of purified proteins, Western blot for GFP
[6] = target: GST-KLC1 (glutathione S-transferase fused to kinesin light chain 1, all but the first seven amino acids) (UniProt O88447); experiment: GST pull-down of purified proteins, Western blot for GFP; also found under five buffer conditions including high salt
[7] = target: KLC1 (kinesin light chain 1), endogenous, mouse brain (mouse) (UniProt O88447); experiment: co-immunoprecipitation with KHC antibodies from wild-type and KLC1 mutant mouse brain extracts
[8] = target: KLC2 (kinesin light chain 2), endogenous, mouse brain (mouse) (UniProt O88448); experiment: as above
[9] = target: KLC2 (kinesin light chain 2), endogenous, mouse brain (mouse) (UniProt O88448); experiment: sucrose gradient sedimentation and co-immunoprecipitation with 63-90 from fraction 11 of KLC1 mutant gradients
[10] = target: KLC1 (kinesin light chain 1), endogenous, mouse brain (mouse) (UniProt O88447); experiment: 5-20% sucrose gradient velocity sedimentation of mouse brain membrane proteins, quantitative Western blot (FIG. 2)
[11] = target: KLC1 (kinesin light chain 1), endogenous, mouse brain (mouse) (UniProt O88447); experiment: co-immunoprecipitation from wild-type and KLC1 mutant mouse brain extracts with a KLC1-specific antibody, Western blot
[12] = target: KLC2 (kinesin light chain 2), endogenous, mouse brain (mouse) (UniProt O88448); experiment: co-immunoprecipitation from wild-type and KLC1 mutant mouse brain extracts with a KLC2-specific antibody, Western blot
[13] = target: KLC1 (kinesin light chain 1), endogenous, mouse brain (mouse) (UniProt O88447); experiment: co-immunoprecipitation from sucrose gradient fractions (data not shown); not possible from fraction 8 of KLC1 mutant gradients
[14] = target: GST-CC (GST fusion protein of the N-terminal coiled coil domain of KLC, amino acids 30-200) (UniProt O88447); experiment: GST pull-down, Western blot for the His tag
[15] = target: GST-KLC1 (glutathione S-transferase fused to kinesin light chain 1, all but the first seven amino acids) (UniProt O88447); experiment: GST pull-down of purified proteins, Western blot for the His tag
[16] = target: GST-KLC2 (glutathione S-transferase fused to kinesin light chain 2, 591 amino acids of the largest cDNA clone) (UniProt O88448); experiment: as above

Measured: binding

APP-GFP fusion protein (C-terminal 42 amino acids of human APP fused to GFP, from a His-tagged pRSETb-EGFP vector) (from UniProt P05067 729-770; P42212 1-238)
binds: [1] | [2] | [3] | [4] | [5] | [6]

APP (amyloid precursor protein), endogenous, from mouse brain and sciatic nerve extracts (from UniProt P12023 18-770)
binds: [7] | [8] | [9] | [10] | [11] | [12] | [13]

KIF5B-His fusion protein (amino acids 499-783 of KIF5B, His-tagged, pET-23b) (from UniProt Q61768 499-783)
binds: [14] | [15] | [16]
